Laboratory results reported in the supplement of paper PMC12823440, “Inhibitors supercharge kinase turnover through native proteolytic circuits” (Nature, 2025).
Counter-ions that a name gives are not always drawn. Some of the results follow. The calls rarely recur for the same compound in another form.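 Kinases, fused to nanoluciferase, were expressed in K562 cells; luminescence was measured every 4 h from 2 to 18 h as percent of control (DMSO = 100%, positive control = 0%). A time point is decreased if signal falls significantly (2 sigma). Hits were called by the authors by a rule that is not shown; the count of time points alone does not decide it.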

Amino acid sequences for entries named in this document (tags omitted). A change or cut given only in a name is not applied to a line headed by its entry.
UniProt Q9Y616: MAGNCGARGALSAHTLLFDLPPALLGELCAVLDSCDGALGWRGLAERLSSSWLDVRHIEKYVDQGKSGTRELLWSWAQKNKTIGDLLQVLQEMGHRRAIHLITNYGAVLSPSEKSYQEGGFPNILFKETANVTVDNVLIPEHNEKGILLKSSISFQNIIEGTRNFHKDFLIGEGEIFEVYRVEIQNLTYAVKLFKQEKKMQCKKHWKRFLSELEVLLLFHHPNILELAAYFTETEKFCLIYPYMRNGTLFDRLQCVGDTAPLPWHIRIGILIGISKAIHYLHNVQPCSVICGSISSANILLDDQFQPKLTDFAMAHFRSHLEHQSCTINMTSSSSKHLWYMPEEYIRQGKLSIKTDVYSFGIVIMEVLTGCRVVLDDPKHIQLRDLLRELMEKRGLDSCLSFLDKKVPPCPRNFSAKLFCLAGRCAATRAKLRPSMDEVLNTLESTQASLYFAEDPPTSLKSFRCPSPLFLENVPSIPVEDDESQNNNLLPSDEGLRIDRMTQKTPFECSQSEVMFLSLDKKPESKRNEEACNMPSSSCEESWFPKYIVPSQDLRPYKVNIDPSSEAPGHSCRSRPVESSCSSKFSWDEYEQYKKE
UniProt P23458: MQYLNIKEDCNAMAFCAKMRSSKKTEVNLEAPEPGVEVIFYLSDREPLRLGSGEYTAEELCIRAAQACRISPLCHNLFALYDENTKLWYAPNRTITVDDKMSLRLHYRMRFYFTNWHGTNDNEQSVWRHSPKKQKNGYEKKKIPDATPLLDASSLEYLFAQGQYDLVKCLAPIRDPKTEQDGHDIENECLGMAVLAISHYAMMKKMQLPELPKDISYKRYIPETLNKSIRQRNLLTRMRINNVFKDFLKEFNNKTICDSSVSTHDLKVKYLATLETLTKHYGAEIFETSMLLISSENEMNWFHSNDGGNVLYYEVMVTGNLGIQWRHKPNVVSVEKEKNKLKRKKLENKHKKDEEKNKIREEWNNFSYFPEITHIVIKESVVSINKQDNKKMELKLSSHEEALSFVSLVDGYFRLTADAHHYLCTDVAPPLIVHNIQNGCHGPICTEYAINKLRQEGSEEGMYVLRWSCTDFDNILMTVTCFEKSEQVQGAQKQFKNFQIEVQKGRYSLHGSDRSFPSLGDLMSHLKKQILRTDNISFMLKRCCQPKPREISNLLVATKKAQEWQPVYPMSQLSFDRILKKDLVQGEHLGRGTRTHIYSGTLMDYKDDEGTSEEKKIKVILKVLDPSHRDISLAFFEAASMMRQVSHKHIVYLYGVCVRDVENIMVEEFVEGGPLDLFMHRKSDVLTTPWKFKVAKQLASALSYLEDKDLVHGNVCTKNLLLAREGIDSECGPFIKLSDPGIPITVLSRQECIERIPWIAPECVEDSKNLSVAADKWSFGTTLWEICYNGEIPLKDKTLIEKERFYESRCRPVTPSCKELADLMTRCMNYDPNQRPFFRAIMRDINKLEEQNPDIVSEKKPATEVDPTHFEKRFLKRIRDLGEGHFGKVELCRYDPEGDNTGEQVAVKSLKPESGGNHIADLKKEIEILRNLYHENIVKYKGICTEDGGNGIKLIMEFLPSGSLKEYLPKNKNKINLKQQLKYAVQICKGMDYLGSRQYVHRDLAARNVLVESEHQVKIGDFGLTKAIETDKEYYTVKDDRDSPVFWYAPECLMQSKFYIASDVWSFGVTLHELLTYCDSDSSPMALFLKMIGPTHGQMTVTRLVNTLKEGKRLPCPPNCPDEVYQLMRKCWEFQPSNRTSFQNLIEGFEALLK
UniProt P06239: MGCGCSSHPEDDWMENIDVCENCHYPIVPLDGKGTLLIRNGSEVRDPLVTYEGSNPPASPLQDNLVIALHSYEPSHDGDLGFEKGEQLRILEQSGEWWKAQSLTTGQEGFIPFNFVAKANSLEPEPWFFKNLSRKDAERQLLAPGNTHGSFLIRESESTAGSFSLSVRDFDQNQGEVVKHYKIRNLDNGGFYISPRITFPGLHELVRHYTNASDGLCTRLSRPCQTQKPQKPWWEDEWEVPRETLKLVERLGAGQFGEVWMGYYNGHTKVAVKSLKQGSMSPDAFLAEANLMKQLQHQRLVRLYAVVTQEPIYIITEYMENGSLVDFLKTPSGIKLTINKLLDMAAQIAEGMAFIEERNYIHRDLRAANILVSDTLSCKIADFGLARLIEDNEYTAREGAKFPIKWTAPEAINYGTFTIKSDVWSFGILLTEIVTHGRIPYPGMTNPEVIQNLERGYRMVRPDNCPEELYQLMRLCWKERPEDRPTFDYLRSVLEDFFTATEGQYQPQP
UniProt P53667: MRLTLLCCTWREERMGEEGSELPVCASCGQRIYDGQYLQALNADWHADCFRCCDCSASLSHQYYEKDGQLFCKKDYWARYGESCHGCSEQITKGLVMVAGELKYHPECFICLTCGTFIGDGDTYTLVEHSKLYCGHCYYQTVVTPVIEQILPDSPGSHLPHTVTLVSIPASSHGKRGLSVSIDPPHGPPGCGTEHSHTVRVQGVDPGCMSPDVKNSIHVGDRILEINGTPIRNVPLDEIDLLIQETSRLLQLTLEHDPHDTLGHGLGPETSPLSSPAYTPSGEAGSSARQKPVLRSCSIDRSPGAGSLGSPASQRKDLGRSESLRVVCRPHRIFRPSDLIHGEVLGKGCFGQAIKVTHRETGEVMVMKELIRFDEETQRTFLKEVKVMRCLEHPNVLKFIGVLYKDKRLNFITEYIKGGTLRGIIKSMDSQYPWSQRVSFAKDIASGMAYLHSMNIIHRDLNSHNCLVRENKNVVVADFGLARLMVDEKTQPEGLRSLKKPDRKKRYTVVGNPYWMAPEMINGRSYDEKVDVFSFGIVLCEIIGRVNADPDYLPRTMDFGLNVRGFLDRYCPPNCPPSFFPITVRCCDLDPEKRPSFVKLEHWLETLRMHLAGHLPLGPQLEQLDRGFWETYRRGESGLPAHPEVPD
UniProt P53671: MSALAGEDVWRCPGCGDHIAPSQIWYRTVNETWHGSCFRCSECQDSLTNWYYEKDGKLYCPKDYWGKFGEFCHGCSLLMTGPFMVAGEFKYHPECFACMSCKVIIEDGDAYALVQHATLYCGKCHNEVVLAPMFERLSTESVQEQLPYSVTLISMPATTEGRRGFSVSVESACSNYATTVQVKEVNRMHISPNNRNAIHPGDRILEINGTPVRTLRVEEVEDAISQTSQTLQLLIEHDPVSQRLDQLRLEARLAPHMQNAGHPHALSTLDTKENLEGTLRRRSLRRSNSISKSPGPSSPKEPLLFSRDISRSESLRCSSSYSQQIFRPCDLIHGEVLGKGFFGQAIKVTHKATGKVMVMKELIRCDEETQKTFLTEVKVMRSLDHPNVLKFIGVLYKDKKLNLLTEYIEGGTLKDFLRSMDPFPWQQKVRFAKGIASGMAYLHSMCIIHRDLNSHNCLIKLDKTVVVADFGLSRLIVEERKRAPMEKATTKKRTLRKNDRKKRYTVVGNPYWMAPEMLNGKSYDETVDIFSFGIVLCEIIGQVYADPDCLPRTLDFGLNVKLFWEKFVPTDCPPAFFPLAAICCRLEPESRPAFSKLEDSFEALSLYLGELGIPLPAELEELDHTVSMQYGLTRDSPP
UniProt Q8IWU2: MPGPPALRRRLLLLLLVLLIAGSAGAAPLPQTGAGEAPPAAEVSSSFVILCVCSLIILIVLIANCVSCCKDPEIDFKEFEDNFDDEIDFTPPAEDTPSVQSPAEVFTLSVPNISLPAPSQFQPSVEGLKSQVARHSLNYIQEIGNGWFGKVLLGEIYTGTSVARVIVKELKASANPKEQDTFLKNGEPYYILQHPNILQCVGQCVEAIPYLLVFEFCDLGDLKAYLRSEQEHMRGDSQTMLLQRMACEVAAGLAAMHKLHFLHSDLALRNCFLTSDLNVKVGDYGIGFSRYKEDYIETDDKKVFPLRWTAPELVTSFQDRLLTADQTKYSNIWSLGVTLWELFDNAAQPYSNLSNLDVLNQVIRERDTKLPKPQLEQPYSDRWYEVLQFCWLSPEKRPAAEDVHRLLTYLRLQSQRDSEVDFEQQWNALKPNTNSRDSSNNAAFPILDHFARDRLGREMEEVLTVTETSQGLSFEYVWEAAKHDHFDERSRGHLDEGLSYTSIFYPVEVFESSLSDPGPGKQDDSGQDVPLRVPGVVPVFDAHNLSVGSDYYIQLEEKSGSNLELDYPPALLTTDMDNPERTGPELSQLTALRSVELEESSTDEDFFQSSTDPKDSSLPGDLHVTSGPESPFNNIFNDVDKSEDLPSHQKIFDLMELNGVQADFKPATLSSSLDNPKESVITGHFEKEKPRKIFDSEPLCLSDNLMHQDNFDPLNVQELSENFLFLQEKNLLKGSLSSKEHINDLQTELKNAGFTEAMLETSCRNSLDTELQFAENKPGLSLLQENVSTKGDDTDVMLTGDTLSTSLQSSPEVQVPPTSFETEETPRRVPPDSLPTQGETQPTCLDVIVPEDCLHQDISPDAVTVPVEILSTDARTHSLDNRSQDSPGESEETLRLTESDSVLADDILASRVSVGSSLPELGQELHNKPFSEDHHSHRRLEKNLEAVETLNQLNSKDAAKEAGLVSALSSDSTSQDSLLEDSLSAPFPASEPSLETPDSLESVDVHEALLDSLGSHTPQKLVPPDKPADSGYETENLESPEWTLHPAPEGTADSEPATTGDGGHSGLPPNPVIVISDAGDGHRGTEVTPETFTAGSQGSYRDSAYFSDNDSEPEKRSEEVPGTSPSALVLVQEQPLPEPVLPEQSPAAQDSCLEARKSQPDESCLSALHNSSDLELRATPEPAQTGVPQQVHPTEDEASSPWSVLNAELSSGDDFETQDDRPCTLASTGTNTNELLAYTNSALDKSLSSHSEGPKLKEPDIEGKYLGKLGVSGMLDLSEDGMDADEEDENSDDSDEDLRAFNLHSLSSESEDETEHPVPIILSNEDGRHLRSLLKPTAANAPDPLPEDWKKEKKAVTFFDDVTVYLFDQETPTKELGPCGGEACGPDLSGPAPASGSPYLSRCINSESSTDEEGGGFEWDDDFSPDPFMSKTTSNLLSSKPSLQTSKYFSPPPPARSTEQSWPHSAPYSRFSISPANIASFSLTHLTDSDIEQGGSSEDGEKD
UniProt P07948: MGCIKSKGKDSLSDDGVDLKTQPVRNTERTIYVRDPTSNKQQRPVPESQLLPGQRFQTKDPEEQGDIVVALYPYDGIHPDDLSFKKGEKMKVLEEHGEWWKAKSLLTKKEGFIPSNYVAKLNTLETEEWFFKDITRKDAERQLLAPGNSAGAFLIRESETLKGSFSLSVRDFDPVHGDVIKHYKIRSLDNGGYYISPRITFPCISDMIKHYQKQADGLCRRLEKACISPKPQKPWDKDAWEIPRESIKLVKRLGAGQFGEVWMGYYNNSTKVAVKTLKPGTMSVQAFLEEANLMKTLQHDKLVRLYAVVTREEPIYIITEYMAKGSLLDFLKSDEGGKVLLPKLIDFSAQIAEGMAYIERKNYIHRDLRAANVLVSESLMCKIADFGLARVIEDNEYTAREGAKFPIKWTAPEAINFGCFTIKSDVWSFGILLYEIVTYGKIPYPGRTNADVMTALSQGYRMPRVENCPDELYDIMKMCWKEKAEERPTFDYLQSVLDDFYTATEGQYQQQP
UniProt Q12851: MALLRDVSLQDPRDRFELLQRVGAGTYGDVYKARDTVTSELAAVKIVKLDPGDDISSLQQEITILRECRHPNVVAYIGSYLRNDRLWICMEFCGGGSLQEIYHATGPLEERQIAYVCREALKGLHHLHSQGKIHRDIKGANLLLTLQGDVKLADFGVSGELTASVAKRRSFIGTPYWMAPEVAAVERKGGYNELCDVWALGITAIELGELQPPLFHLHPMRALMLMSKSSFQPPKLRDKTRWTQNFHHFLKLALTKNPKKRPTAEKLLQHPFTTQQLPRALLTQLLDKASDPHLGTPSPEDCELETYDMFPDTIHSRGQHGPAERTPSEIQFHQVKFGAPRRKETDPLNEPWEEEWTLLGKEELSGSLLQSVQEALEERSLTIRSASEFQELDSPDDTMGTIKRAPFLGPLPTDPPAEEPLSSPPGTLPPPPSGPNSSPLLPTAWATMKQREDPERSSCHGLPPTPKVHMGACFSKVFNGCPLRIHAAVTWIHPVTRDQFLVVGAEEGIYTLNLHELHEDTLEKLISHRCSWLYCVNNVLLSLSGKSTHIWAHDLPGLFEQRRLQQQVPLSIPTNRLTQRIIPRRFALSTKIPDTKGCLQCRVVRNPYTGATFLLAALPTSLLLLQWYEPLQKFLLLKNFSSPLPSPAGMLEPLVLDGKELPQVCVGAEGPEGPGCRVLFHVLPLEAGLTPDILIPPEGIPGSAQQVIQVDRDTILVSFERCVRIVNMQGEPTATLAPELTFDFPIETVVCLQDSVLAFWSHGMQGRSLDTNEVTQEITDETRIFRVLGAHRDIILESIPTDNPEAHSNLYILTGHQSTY

Assays:
Assay in all cases: kinase-Nluc reporter destabilization hit call (1 = scored as downregulated) (binary); higher = compound decreases kinase abundance
Conditions in all cases: K562; 2-18 h
[1] = target: IRAK3 (UniProt Q9Y616)
[2] = target: JAK1 (UniProt P23458)
[3] = target: LCK (UniProt P06239)
[4] = target: LIMK1 (UniProt P53667)
[5] = target: LIMK2 (UniProt P53671)
[6] = target: LMTK2 (UniProt Q8IWU2)
[7] = target: LYN (UniProt P07948)
[8] = target: MAP2K1 (UniProt Q02750)
[9] = target: MAP2K2 (UniProt P36507)
[10] = target: MAP4K2 (UniProt Q12851)

Measured: kinase-Nluc reporter destabilization hit call

O=C(Nc1nc2ccc(NC(=O)C34CC5CC(CC(C5)C3)C4)cc2s1)c1ccccc1 (10 µM)
inactive: [1] 0 | [2] 0 | [3] 0 | [4] 0 | [5] 0 | [6] 0 | [7] 0 | [8] 0 | [9] 0 | [10] 0

CNc1nc(Nc2cn(C(C)(C)C#N)nc2C)ncc1C(F)(F)F (10 µM)
inactive: [1] 0 | [2] 0 | [3] 0 | [4] 0 | [5] 0 | [6] 0 | [7] 0 | [8] 0 | [9] 0 | [10] 0

CC(C)=CCc1c(-c2ccc(O)cc2O)oc2c3c(cc(O)c2c1=O)OC(C)(C)C=C3 [Morusin] (2.5 µM)
inactive: [1] 0 | [2] 0 | [3] 0 | [4] 0 | [5] 0 | [6] 0 | [7] 0 | [8] 0 | [9] 0 | [10] 0

C=CC(=O)Nc1cc(Nc2nccc(-n3cc(CN(C)C)c(-c4ccccc4)n3)n2)c(OC)cc1N1CCOCC1 [Lazertinib] (10 µM)
inactive: [1] 0 | [2] 0 | [3] 0 | [4] 0 | [5] 0 | [6] 0 | [7] 0 | [8] 0 | [9] 0 | [10] 0

Cn1cnc([N+](=O)[O-])c1C[N+](C)(C)C/C=C/C(=O)Nc1cc2c(Nc3ccc(Cl)c(Br)c3)ncnc2cn1 [Tarloxotinib (bromide)] (10 µM)
inactive: [1] 0 | [2] 0 | [3] 0 | [4] 0 | [5] 0 | [6] 0 | [7] 0 | [8] 0 | [9] 0 | [10] 0

NC(=O)N1CCC(CC(=O)N2CCC([C@H]3c4ncc(Br)cc4CCc4cc(Cl)cc(Br)c43)CC2)CC1 [Lonafarnib] (2.5 µM)
inactive: [1] 0 | [2] 0 | [3] 0 | [4] 0 | [5] 0 | [6] 0 | [7] 0 | [8] 0 | [9] 0 | [10] 0

CC1(C)Cc2c(sc(NC(=S)NC(=O)c3ccccc3)c2C(=O)O)CO1 (10 µM)
inactive: [1] 0 | [2] 0 | [3] 0 | [4] 0 | [5] 0 | [6] 0 | [7] 0 | [8] 0 | [9] 0 | [10] 0

Cc1cc(-c2ccnc(Nc3cnn(C)c3)n2)ccc1CNC(=O)N1CC(OC(C)C)C1 (10 µM)
inactive: [1] 0 | [2] 0 | [3] 0 | [4] 0 | [5] 0 | [6] 0 | [7] 0 | [8] 0 | [9] 0 | [10] 0

Cc1c(-c2ccc(C(N)=O)c3[nH]c4cc(C(C)(C)O)ccc4c23)cccc1-n1cnc2ccccc2c1=O (2.5 µM)
inactive: [1] 0 | [2] 0 | [3] 0 | [4] 0 | [5] 0 | [6] 0 | [7] 0 | [8] 0 | [9] 0 | [10] 0

O=C(O)c1cc(N(Cc2ccccc2O)Cc2ccccc2O)ccc1O [Lavendustin B] (10 µM)
inactive: [1] 0 | [2] 0 | [3] 0 | [4] 0 | [5] 0 | [6] 0 | [7] 0 | [8] 0 | [9] 0 | [10] 0

O=C(Nc1nc(=O)n(Cc2ccc(Cl)cc2)s1)c1ccc(Cl)cc1 (10 µM)
inactive: [1] 0 | [2] 0 | [3] 0 | [4] 0 | [5] 0 | [6] 0 | [7] 0 | [8] 0 | [9] 0 | [10] 0

O=C(O)c1cccc(CN2C(=O)/C(=C(\c3ccccc3)c3ccc(Cl)cc3)c3ccccc32)c1 (2.5 µM)
inactive: [1] 0 | [2] 0 | [3] 0 | [4] 0 | [5] 0 | [6] 0 | [7] 0 | [8] 0 | [9] 0 | [10] 0

Cn1cc(C2=C(c3cccc(N)c3)C(=O)NC2=O)c2ccccc21 (10 µM)
inactive: [1] 0 | [2] 0 | [3] 0 | [4] 0 | [5] 0 | [6] 0 | [7] 0 | [8] 0 | [9] 0 | [10] 0

C[C@H](Nc1ncnc2nc[nH]c12)c1cc2cccc(Cl)c2c(=O)n1-c1ccccc1 [Duvelisib] (10 µM)
inactive: [1] 0 | [2] 0 | [3] 0 | [4] 0 | [5] 0 | [6] 0 | [7] 0 | [8] 0 | [9] 0 | [10] 0

C[C@H](Nc1ncnc2[nH]cnc12)c1cc2ccc(F)cc2nc1-c1ccccn1 (10 µM)
inactive: [1] 0 | [2] 0 | [3] 0 | [4] 0 | [5] 0 | [6] 0 | [7] 0 | [8] 0 | [9] 0 | [10] 0

Nc1c(C(=O)NCc2ccc(C(=O)NCCCC3CCCCC3)cc2)cnn1-c1ccccc1 (2.5 µM)
inactive: [1] 0 | [2] 0 | [3] 0 | [4] 0 | [5] 0 | [6] 0 | [7] 0 | [8] 0 | [9] 0 | [10] 0

CNC(=O)c1cc2c(Oc3ccc(NC(=S)NC(=O)Cc4ccccc4)cc3F)ccnc2cc1OC [TAS-115 mesylate] (10 µM)
inactive: [1] 0 | [2] 0 | [3] 0 | [4] 0 | [5] 0 | [6] 0 | [7] 0 | [8] 0 | [9] 0 | [10] 0

Cn1cc(-c2c[nH]c3ncnc(N4CCOCC4)c23)cc1C#N (10 µM)
inactive: [1] 0 | [2] 0 | [3] 0 | [4] 0 | [5] 0 | [6] 0 | [7] 0 | [8] 0 | [9] 0 | [10] 0

c1cc(NC2CCNCC2)nc(-c2cnc3ccccn23)c1 [IRAK inhibitor 1] (10 µM)
inactive: [1] 0 | [2] 0 | [3] 0 | [4] 0 | [5] 0 | [6] 0 | [7] 0 | [8] 0 | [9] 0 | [10] 0

Cc1ccc(NC(=O)c2ccc(CN(CCN(C)C)C(=O)c3cccnc3)cc2)cc1Nc1nccc(-c2cccnc2)n1 [PDGFRα kinase inhibitor 1] (10 µM)
inactive: [1] 0 | [2] 0 | [3] 0 | [4] 0 | [5] 0 | [6] 0 | [7] 0 | [8] 0 | [9] 0 | [10] 0

O=C(Nc1nc2ccccc2[nH]1)c1cccc([N+](=O)[O-])c1 [IRAK-4 protein kinase inhibitor 2] (10 µM)
inactive: [1] 0 | [2] 0 | [3] 0 | [4] 0 | [5] 0 | [6] 0 | [7] 0 | [8] 0 | [9] 0 | [10] 0

O=Nc1c2[nH]c3ccccc3nc-2c2ccccc12 [IQ-1S (free acid)] (2.5 µM)
inactive: [1] 0 | [2] 0 | [3] 0 | [4] 0 | [5] 0 | [6] 0 | [7] 0 | [8] 0 | [9] 0 | [10] 0

COc1cc(N2CCOCC2)ccc1NC(=O)c1csc(-c2cccnc2)n1 [IRAK inhibitor 6] (10 µM)
inactive: [1] 0 | [2] 0 | [3] 0 | [4] 0 | [5] 0 | [6] 0 | [7] 0 | [8] 0 | [9] 0 | [10] 0

c1ccc(-c2nc(=NCCN3CCOCC3)sn2-c2ccccc2)cc1 [VP3.15 (dihydrobromide)] (10 µM)
inactive: [1] 0 | [2] 0 | [3] 0 | [4] 0 | [5] 0 | [6] 0 | [7] 0 | [8] 0 | [9] 0 | [10] 0

CCc1cccc(CC)c1NC(=O)N1Cc2[nH]nc(NC(=O)c3ccc(N4CCN(C)CC4)cc3)c2C1 (2.5 µM)
inactive: [1] 0 | [2] 0 | [3] 0 | [4] 0 | [5] 0 | [6] 0 | [7] 0 | [8] 0 | [9] 0 | [10] 0

Oc1ccc(/C=C/c2cc(O)cc(O)c2)cc1 [Resveratrol] (10 µM)
inactive: [1] 0 | [2] 0 | [3] 0 | [4] 0 | [5] 0 | [6] 0 | [7] 0 | [8] 0 | [9] 0 | [10] 0

Nc1nc(N)c2nc(-c3cccc(O)c3)cnc2n1 (10 µM)
inactive: [1] 0 | [2] 0 | [3] 0 | [4] 0 | [5] 0 | [6] 0 | [7] 0 | [8] 0 | [9] 0 | [10] 0

CC/C(=N\NC(=O)c1ccnc(NCCCN2CCOCC2)c1)c1ccc(Cl)cc1O (2.5 µM)
inactive: [1] 0 | [2] 0 | [3] 0 | [4] 0 | [5] 0 | [6] 0 | [7] 0 | [8] 0 | [9] 0 | [10] 0

COCCNc1cc(NC(=O)N2CCCc3cc(CN4CCN(C)CC4=O)c(C=O)nc32)ncc1C#N [Roblitinib] (10 µM)
inactive: [1] 0 | [2] 0 | [3] 0 | [4] 0 | [5] 0 | [6] 0 | [7] 0 | [8] 0 | [9] 0 | [10] 0

CC(C)c1cc(/C=C(\C#N)C(=O)NCCCc2ccccc2)cc(C(C)C)c1O (10 µM)
inactive: [1] 0 | [2] 0 | [3] 0 | [4] 0 | [5] 0 | [6] 0 | [7] 0 | [8] 0 | [9] 0 | [10] 0

Fetched by structure from the entries so far (2):
Nc1nc(N)c2nc(-c3cccc(O)c3)cnc2n1 (10 µM)
inactive: [1] 0 | [2] 0 | [3] 0 | [4] 0 | [5] 0 | [6] 0 | [7] 0 | [8] 0 | [9] 0 | [10] 0

CC/C(=N\NC(=O)c1ccnc(NCCCN2CCOCC2)c1)c1ccc(Cl)cc1O (2.5 µM)
inactive: [1] 0 | [2] 0 | [3] 0 | [4] 0 | [5] 0 | [6] 0 | [7] 0 | [8] 0 | [9] 0 | [10] 0

Additional structures follow:

COc1ccc(-c2c(C)nn3c(NCCN4CCOCC4)cc(C)nc23)cc1OC (10 µM)
inactive: [1] 0 | [2] 0 | [3] 0 | [4] 0 | [5] 0 | [6] 0 | [7] 0 | [8] 0 | [9] 0 | [10] 0

Cc1cc(C)nc(NS(=O)(=O)c2ccc(NC(=S)NC(=O)COc3ccc(Br)cc3Cl)cc2)n1 (2.5 µM)
inactive: [1] 0 | [2] 0 | [3] 0 | [4] 0 | [5] 0 | [6] 0 | [7] 0 | [8] 0 | [9] 0 | [10] 0

CC(C)C[C@@H](C(=O)Nc1ccn(C[C@@H](O)CO)n1)N1CC(Oc2ccccc2Cl)=CC1=O [Dorzagliatin] (10 µM)
inactive: [1] 0 | [2] 0 | [3] 0 | [4] 0 | [5] 0 | [6] 0 | [7] 0 | [8] 0 | [9] 0 | [10] 0
